Consider 15 sequences from PMC7156710.

Amino acid sequences for entries named in this document (tags omitted). Chains listed by the source or under a name are the forms on record and can include a tag or linker. Residues count along the entry.
UniProt P48431, 40-123: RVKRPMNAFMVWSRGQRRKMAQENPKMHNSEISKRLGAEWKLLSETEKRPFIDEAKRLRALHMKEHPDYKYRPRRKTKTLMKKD
UniProt P48431, 40-123 F48A: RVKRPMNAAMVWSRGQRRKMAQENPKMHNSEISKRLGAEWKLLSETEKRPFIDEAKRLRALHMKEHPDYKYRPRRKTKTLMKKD
UniProt P48431, 40-123 N46A: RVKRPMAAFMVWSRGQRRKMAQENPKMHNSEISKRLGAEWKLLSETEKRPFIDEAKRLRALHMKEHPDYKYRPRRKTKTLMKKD
UniProt P48431, 40-123 R98A: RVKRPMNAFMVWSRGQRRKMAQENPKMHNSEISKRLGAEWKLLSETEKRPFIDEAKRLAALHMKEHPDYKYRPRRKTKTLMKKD
UniProt P48431, 40-123 R113A: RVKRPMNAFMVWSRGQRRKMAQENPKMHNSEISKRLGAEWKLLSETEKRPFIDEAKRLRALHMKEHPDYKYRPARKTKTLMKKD
UniProt P48431, 40-123 W79A: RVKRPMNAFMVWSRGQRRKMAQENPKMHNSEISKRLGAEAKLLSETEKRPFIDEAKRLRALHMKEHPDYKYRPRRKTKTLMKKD
UniProt P48431, 40-123 K80A: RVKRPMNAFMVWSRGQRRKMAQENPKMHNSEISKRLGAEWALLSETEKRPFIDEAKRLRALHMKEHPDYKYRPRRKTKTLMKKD
UniProt P48431, 40-123 W51A: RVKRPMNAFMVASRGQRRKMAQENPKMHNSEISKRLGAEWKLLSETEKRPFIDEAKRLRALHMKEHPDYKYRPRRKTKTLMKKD
UniProt P48431, 40-123 R56A: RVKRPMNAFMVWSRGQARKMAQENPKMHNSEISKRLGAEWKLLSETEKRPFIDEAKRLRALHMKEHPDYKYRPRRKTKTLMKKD
UniProt P48431, 40-123 K95A: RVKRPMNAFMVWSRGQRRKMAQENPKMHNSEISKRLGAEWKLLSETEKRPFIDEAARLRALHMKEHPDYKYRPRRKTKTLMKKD
UniProt P48431, other isoform, or with tags, fused parts or gaps: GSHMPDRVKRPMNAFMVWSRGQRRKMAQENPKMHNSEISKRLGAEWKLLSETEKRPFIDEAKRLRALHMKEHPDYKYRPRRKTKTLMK

For series [1], the target named is Sox2-HMG (Homo sapiens) (UniProt P48431). Nature of the series: fluorescence anisotropy. The conditions noted are these: 10 mM Tris-HEPES pH 7.5, 135 mM KCl, 15 mM NaCl, 1 mM DTT, 8% Ficoll, 0.05% NP-40, 0.1 mg/mL BSA; 2 nM DNA or 3 nM RNA; room temperature (stated for competition); recombinant protein; residues 40-123; protein details: N-terminal His6, thrombin cleaved; label: 3' fluorescein.

Series [2] has as its target Sox2-HMG (from His8-MBP fusion) (Homo sapiens) (UniProt P48431). Nature of the series: fluorescence anisotropy. The conditions noted are these: 10 mM Tris-HEPES pH 7.5, 135 mM KCl, 15 mM NaCl, 1 mM DTT, 8% Ficoll, 0.05% NP-40, 0.1 mg/mL BSA; 2 nM DNA or 3 nM RNA; room temperature (stated for competition); recombinant protein; residues 40-123; protein details: His8-MBP removed with HRV-3C; label: 3'-FAM. A general note: Fluorescence polarisation rises when a labelled molecule tumbles more slowly, as on binding a larger partner.

The target of series [3] is Sox2-HMG (Homo sapiens) (UniProt P48431). Nature of the series: NMR HSQC. Conditions: 10 mM Tris-HEPES pH 7.5, 135 mM KCl, 15 mM NaCl, 1 mM DTT, 8% Ficoll, 0.05% NP-40, 0.1 mg/mL BSA; 2 nM DNA or 3 nM RNA; room temperature (stated for competition); recombinant protein; residues 40-123; protein details: N-terminal His6, thrombin cleaved; label: 3' fluorescein.
Series [4] addresses Sox2-HMG F48A (Homo sapiens) (UniProt P48431). Nature of the series: fluorescence anisotropy. The conditions noted are these: 10 mM Tris-HEPES pH 7.5, 135 mM KCl, 15 mM NaCl, 1 mM DTT, 8% Ficoll, 0.05% NP-40, 0.1 mg/mL BSA; 2 nM DNA or 3 nM RNA; room temperature (stated for competition); recombinant protein; residues 40-123; protein details: His6; label: 3' fluorescein.
The target of series [5] is Sox2-HMG N46A (Homo sapiens) (UniProt P48431). Nature of the series: fluorescence anisotropy. Conditions: 10 mM Tris-HEPES pH 7.5, 135 mM KCl, 15 mM NaCl, 1 mM DTT, 8% Ficoll, 0.05% NP-40, 0.1 mg/mL BSA; 2 nM DNA or 3 nM RNA; room temperature (stated for competition); recombinant protein; residues 40-123; protein details: His6; label: 3' fluorescein.
Series [6] deals with Sox2-HMG R98A (Homo sapiens) (UniProt P48431). Nature of the series: fluorescence anisotropy. The conditions noted are these: 10 mM Tris-HEPES pH 7.5, 135 mM KCl, 15 mM NaCl, 1 mM DTT, 8% Ficoll, 0.05% NP-40, 0.1 mg/mL BSA; 2 nM DNA or 3 nM RNA; room temperature (stated for competition); recombinant protein; residues 40-123; protein details: His6; label: 3' fluorescein.
The target of series [7] is Sox2-HMG R113A (Homo sapiens) (UniProt P48431). In words: fluorescence anisotropy. Conditions: 10 mM Tris-HEPES pH 7.5, 135 mM KCl, 15 mM NaCl, 1 mM DTT, 8% Ficoll, 0.05% NP-40, 0.1 mg/mL BSA; 2 nM DNA or 3 nM RNA; room temperature (stated for competition); recombinant protein; residues 40-123; protein details: His6; label: 3' fluorescein.
The target of series [8] is Sox2-HMG W79A (Homo sapiens) (UniProt P48431). In words: fluorescence anisotropy. The conditions noted are these: 10 mM Tris-HEPES pH 7.5, 135 mM KCl, 15 mM NaCl, 1 mM DTT, 8% Ficoll, 0.05% NP-40, 0.1 mg/mL BSA; 2 nM DNA or 3 nM RNA; room temperature (stated for competition); recombinant protein; residues 40-123; protein details: His6; label: 3' fluorescein.
Series [9] deals with Sox2-HMG K80A (Homo sapiens) (UniProt P48431). In words: fluorescence anisotropy. The conditions noted are these: 10 mM Tris-HEPES pH 7.5, 135 mM KCl, 15 mM NaCl, 1 mM DTT, 8% Ficoll, 0.05% NP-40, 0.1 mg/mL BSA; 2 nM DNA or 3 nM RNA; room temperature (stated for competition); recombinant protein; residues 40-123; protein details: His6; label: 3' fluorescein.
For series [10], the target named is Sox2-HMG W51A (Homo sapiens) (UniProt P48431). In words: fluorescence anisotropy. The conditions noted are these: 10 mM Tris-HEPES pH 7.5, 135 mM KCl, 15 mM NaCl, 1 mM DTT, 8% Ficoll, 0.05% NP-40, 0.1 mg/mL BSA; 2 nM DNA or 3 nM RNA; room temperature (stated for competition); recombinant protein; residues 40-123; protein details: His6; label: 3' fluorescein.
The target in series [11] is Sox2-HMG R56A (Homo sapiens) (UniProt P48431). Nature of the series: fluorescence anisotropy. The conditions noted are these: 10 mM Tris-HEPES pH 7.5, 135 mM KCl, 15 mM NaCl, 1 mM DTT, 8% Ficoll, 0.05% NP-40, 0.1 mg/mL BSA; 2 nM DNA or 3 nM RNA; room temperature (stated for competition); recombinant protein; residues 40-123; protein details: His6; label: 3' fluorescein.

The target in series [12] is Sox2-HMG K95A (Homo sapiens) (UniProt P48431). In words: fluorescence anisotropy. The conditions noted are these: 10 mM Tris-HEPES pH 7.5, 135 mM KCl, 15 mM NaCl, 1 mM DTT, 8% Ficoll, 0.05% NP-40, 0.1 mg/mL BSA; 2 nM DNA or 3 nM RNA; room temperature (stated for competition); recombinant protein; residues 40-123; protein details: His6; label: 3' fluorescein.
Series [13] addresses Sox2-HMG (thrombin cleaved) (Homo sapiens) (UniProt P48431). In words: fluorescence anisotropy. Conditions: 10 mM Tris-HEPES pH 7.5, 8% Ficoll, 0.05% NP-40, 135 mM KCl, 15 mM NaCl, 1 mM DTT, 0.1 mg/mL BSA; 2 nM DNA or 3 nM RNA; recombinant protein; residues 38-121; label: FAM on one strand.

For some of these results: Weaker means in comparison with the reference protein, sequence or condition of that experiment. For some of these results: For at least one entry, the source does not settle the construct or the ends of the probe. For some of these results: At least one verdict rests on a figure or table, not on a statement of the authors.

With “GGUAUCAUGCGGAAACGCACCUCUACC [Loop B, P1/2(3bp)]”, the dissociation constant Kd (as a rule, the constant that tells how readily two partners part at equilibrium) in the series with Sox2-HMG (Homo sapiens) [1] came to 11 nM.
Turning to GGUCCAUGCGAAAGUAUGGACC [9 bp hairpin], in [2], the Kd is 54 nM.
The same measure, in the same setting: as for “GGUCCAUGCGGGCGAAAGUCUGUAUGGACC [13 bp hairpin]”, the figure is 83 nM; as for GGUCCGAAAGGACC [5 bp hairpin], 71 nM.
For “GGUCGCCGUGGCCACUUCGAAAGGGGUGGAAAGGGCGACC [Loop A]”, the Kd with Sox2-HMG (Homo sapiens) [1] was found to be 11 nM.
For the sequence “GGUCUUAAGGUGCGGGCGAAAGUCUGUACCUCUGGGACC [Loop B, Bulge(0+1)]”, the binding result is recorded as “binds” with Sox2-HMG (Homo sapiens) [3]; “binds more weakly” in series [4]; “binds more weakly” in series [5]; “binds more weakly” in series [6]; “binds more weakly” in series [7]; “binds more weakly” in series [8]. The binding result in series [9], in series [10], in [11] and in series [12] was “binds more weakly” in each case. In the series with Sox2-HMG (Homo sapiens) [1], the Kd worked out at 10 nM.
“GGUCUUAUCAUGCGAAAGUACCUCUGGGACC [Loop B, P2(3bp)]”: the Kd with Sox2-HMG (Homo sapiens) [1] turned out to be 12 nM.
Still for that read-out and setting: as for “GGUCUUAUCAUGCGCGAAAGUGUACCUCUGGGACC [Loop B, P2(5bp)]”, the figure is 10 nM.
In the case of “GGUCUUAUCAUGCGGGC / GCCCGCAUGAUAAGACC [Loop B fully paired RNA duplex]”, the Kd in series [13] came out at 53.5 nM.
For “GGUCUUAUCAUGCGGGCGAAAGUCUGUACCUCUGGGACC [Loop B]”, the Kd with Sox2-HMG (Homo sapiens) [1] was 10 nM.
Still for that read-out and setting: as for “GGUCUUAUCGUGCGGGCGAAAGUCUGUACCUCUGGGACC [Loop B, Bulge(2+3)]”, the figure is 14 nM; as for “GGUCUUAUGGUGCGGGCGAAAGUCUGUACCUCUGGGACC [Loop B, Bulge(1+2)]”, 12 nM; as for “GGUGAUGUUCGCCGUGGCCACUUAUCAUGCGGGCUCCUUUGGGAGGGUGCUCUUCUUUGUCUGUACCUCUGGGUGGAAAGGGCGAAUUC [ES2 267-354]”, 10 nM.
Same read-out and setting: as for “GGUGGGCUCCUUUGGGAGGGUGCUCUUCUUUGUCUACC [Loop C]”, the figure is 11 nM; as for “GGUGUUAAAAGCAUAGUGGGAAAGUGACGUGUAAUUCGUCCACAUUACUUGAUGCGGUUAUAGUCCCAAUGCCACCUAACACAAAGUACGAGCAAGGAGACUC [env4 Cbl riboswitch]”, 32 nM.
